Experimental data from paper PMC9981583.
Results are given in words; binding and its absence hold for the method and conditions named. Binding seen in cells or lysates may run through a third protein. A yes stands for co-enrichment or nearness to the bait. Other partners may have been found.

By UniProt entry, the sequences of proteins in these tests, tags left out.
UniProt Q9P2H5: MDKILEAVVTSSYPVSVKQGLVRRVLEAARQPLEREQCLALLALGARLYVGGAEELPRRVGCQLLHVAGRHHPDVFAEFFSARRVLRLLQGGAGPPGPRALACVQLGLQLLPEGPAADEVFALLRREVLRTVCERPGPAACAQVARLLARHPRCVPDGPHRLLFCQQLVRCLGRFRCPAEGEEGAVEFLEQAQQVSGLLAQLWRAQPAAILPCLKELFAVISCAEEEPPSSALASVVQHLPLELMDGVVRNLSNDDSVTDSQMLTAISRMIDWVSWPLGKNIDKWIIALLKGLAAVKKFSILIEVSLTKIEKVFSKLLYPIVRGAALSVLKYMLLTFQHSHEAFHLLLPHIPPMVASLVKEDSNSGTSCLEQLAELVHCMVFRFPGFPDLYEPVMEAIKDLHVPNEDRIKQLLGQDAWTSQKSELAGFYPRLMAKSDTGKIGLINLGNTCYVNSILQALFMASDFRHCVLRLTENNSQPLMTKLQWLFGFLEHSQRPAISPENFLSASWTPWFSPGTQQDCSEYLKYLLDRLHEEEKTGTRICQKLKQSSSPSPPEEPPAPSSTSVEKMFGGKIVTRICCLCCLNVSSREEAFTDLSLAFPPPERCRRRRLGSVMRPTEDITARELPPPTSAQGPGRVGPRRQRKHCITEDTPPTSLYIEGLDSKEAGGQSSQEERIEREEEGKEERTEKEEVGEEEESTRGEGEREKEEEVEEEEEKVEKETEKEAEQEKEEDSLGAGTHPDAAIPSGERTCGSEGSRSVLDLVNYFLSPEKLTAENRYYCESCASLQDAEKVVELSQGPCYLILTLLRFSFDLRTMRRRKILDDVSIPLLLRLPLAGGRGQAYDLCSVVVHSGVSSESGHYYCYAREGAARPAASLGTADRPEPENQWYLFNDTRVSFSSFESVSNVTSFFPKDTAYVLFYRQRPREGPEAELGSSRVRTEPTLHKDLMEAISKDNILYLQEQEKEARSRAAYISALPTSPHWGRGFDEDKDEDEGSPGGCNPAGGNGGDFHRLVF
UniProt P17844: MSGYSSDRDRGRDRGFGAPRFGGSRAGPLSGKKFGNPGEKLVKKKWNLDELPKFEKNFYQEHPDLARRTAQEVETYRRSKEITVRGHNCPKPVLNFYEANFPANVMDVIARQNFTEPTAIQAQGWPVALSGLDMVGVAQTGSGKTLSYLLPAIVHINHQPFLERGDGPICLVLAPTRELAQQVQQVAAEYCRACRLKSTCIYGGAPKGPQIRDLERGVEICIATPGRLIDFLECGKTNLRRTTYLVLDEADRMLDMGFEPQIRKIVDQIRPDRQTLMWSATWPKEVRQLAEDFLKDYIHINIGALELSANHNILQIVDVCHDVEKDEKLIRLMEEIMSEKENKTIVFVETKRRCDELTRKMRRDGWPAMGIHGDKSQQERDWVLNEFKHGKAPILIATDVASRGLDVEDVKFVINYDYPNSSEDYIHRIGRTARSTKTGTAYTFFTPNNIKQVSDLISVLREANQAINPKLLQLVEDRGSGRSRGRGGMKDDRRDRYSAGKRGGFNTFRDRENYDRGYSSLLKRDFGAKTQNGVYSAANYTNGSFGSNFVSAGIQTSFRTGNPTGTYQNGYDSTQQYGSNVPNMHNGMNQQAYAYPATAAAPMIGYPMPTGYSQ
UniProt O14744: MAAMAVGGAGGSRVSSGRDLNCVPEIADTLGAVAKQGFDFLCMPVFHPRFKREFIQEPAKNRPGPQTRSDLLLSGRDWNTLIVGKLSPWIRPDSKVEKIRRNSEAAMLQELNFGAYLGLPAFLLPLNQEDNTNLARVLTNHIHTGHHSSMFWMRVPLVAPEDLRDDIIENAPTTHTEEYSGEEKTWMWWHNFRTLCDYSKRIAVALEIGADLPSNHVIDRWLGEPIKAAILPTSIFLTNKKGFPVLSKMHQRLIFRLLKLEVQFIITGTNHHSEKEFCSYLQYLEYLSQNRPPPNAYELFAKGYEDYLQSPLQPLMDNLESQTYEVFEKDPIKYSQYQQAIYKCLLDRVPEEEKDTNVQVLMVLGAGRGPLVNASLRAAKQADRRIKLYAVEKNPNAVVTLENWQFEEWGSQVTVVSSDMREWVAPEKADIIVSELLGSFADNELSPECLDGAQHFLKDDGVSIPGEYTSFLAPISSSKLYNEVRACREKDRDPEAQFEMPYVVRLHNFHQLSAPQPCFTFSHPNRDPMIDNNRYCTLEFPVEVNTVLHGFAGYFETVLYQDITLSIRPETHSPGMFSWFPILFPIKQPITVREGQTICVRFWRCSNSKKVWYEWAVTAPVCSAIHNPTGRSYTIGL
UniProt P12956: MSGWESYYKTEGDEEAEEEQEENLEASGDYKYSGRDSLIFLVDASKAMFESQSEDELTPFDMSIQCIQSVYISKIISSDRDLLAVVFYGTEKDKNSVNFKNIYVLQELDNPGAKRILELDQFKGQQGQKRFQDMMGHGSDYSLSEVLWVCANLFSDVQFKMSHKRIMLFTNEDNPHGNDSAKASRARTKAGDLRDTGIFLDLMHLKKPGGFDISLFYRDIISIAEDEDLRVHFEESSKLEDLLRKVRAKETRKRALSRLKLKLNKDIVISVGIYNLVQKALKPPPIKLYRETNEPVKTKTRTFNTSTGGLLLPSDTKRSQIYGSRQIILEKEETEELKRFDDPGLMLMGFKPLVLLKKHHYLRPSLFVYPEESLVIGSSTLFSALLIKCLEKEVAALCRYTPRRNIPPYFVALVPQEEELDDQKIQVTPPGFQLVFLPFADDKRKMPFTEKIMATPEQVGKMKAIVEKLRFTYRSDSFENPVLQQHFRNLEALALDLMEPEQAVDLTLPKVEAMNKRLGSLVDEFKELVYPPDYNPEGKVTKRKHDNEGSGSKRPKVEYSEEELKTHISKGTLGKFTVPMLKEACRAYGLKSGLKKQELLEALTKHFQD

Each molecule was assayed against Flag-tagged USP35 (ubiquitin-specific-processing protease 35) (human) (UniProt Q9P2H5) (assay: affinity purification with mass spectrometry; Flag-USP35 or empty vector transfected into HCT116; anti-Flag immunoprecipitation; SDS-PAGE, silver stain; band of interest cut for mass spectrometry).

Molecule | binding
DDX5 (from UniProt P17844 1-614) | binds
DNAJA1 (from UniProt P31689 1-397) | binds
PRMT5 (from UniProt O14744 1-637) | binds
XRCC6 (from UniProt P12956 1-609) | binds
PPM1B (protein, UniProt O75688 1-479) MGAFLDKPKTEKHNAHGAGNGLRYGLSSMQGWRVEMEDAHTAVVGIPHGLEDWSFFAVYDGHAGSRVANYCSTHLLEHITTNEDFRAAGKSGSALELSVENVKNGIRTGFLKIDEYMRNFSDLRNGMDRSGSTAVGVMISPKHIYFINCGDSRAVLYRNGQVCFSTQDHKPCNPREKERIQNAGGSVMIQRVNGSLAVSRALGDYDYKCVDGKGPTEQLVSPEPEVYEILRAEEDEFIILACDGIWDVMSNEELCEYVKSRLEVSDDLENVCNWVVDTCLHKGSRDNMSIVLVCFSNAPKVSDEAVKKDSELDKHLESRVEEIMEKSGEEGMPDLAHVMRILSAENIPNLPPGGGLAGKRNVIEAVYSRLNPHRESDGASDEAEESGSQGKLVEALRQMRINHRGNYRQLLEEMLTSYRLAKVEGEESPAEPAATATSSNSDAGNPVTMQESHTESESGLAELDSSNEDAGTKMSGEKI | binds
endogenous α-L-fucosidase 1 (FUCA1) (enzyme, UniProt P04066 32-466) QPPRRYTPDWPSLDSRPLPAWFDEAKFGVFIHWGVFSVPAWGSEWFWWHWQGEGRPQYQRFMRDNYPPGFSYADFGPQFTARFFHPEEWADLFQAAGAKYVVLTTKHHEGFTNWPSPVSWNWNSKDVGPHRDLVGELGTALRKRNIRYGLYHSLLEWFHPLYLLDKKNGFKTQHFVSAKTMPELYDLVNSYKPDLIWSDGEWECPDTYWNSTNFLSWLYNDSPVKDEVVVNDRWGQNCSCHHGGYYNCEDKFKPQSLPDHKWEMCTSIDKFSWGYRRDMALSDVTEESEIISELVQTVSLGGNYLLNIGPTKDGLIVPIFQERLLAVGKWLSINGEAIYASKPWRVQWEKNTTSVWYTSKGSAVYAIFLHWPENGVLNLESPITTSTTKITMLGIQGDLKWSTDPDKGLFISLPQLPPSAVPAEFAWTIKLTGVK | binds
